From the supplement of paper PMC10849652
The list shows a part of the results.

Protein sequences, listed by entry. Tags and fused reporters are not part of them. Lines headed by an entry give the natural chain unless they say otherwise; changes in a name come on top.
UniProt Q9Y237, whole entry, looked up: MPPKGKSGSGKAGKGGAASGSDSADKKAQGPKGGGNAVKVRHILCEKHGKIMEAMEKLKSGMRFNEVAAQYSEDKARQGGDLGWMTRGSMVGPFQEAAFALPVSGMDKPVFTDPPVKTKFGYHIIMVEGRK
UniProt O00625: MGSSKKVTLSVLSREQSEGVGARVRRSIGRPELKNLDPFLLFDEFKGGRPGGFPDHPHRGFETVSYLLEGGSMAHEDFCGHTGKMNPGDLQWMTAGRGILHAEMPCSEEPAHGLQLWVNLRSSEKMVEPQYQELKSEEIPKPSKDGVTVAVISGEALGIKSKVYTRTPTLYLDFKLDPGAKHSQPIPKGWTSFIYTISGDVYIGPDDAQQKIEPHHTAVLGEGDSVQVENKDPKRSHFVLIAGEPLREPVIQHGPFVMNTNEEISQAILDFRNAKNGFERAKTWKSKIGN
UniProt P16885: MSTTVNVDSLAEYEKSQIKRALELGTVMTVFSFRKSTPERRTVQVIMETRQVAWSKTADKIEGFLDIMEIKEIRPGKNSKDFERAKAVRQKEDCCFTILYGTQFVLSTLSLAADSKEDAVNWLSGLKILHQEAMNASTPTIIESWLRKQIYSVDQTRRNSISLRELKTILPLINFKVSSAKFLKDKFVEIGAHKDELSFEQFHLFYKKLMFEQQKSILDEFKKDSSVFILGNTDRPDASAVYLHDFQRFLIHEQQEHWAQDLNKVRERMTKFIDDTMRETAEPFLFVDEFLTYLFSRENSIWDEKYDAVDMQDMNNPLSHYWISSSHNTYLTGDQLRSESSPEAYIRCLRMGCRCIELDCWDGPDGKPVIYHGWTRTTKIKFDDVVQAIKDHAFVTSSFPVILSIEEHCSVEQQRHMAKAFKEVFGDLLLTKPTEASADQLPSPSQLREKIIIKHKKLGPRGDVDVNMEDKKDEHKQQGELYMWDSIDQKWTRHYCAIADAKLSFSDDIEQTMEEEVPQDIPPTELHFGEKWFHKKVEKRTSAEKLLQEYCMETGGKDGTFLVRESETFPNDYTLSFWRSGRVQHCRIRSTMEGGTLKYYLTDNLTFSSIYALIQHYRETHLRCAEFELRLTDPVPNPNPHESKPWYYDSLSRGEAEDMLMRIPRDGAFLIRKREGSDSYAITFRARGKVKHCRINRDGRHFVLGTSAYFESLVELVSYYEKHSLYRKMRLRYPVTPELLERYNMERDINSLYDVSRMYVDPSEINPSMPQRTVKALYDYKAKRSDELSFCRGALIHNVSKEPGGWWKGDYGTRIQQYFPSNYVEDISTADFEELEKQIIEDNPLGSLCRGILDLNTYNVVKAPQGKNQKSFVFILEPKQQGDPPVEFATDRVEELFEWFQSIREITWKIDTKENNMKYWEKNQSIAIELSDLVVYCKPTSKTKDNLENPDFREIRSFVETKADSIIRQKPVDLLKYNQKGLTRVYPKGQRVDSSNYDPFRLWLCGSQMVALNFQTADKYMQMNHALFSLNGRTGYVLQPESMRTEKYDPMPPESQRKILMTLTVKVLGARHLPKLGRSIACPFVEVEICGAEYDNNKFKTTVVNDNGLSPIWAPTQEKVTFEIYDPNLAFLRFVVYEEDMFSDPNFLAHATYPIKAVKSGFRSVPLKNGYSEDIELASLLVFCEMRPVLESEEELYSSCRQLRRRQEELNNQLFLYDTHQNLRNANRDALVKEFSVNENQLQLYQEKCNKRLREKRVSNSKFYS
UniProt Q7RTV0, whole entry, looked up: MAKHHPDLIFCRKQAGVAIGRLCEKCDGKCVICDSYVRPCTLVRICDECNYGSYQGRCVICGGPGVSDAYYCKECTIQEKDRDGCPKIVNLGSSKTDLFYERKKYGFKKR
UniProt O15212, whole entry, looked up: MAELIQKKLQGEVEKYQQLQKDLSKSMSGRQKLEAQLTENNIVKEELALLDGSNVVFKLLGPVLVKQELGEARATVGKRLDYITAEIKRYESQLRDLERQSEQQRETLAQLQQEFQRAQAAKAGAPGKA
UniProt Q9UHV9, whole entry, looked up: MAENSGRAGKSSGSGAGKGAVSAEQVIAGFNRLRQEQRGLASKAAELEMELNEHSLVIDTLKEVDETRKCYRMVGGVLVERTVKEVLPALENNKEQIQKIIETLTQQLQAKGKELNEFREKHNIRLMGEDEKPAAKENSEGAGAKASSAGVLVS
UniProt O60925, whole entry, looked up: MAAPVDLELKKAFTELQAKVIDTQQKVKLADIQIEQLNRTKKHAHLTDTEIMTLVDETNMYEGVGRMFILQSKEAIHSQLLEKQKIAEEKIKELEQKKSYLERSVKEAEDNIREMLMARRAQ
UniProt P27986, whole entry, looked up: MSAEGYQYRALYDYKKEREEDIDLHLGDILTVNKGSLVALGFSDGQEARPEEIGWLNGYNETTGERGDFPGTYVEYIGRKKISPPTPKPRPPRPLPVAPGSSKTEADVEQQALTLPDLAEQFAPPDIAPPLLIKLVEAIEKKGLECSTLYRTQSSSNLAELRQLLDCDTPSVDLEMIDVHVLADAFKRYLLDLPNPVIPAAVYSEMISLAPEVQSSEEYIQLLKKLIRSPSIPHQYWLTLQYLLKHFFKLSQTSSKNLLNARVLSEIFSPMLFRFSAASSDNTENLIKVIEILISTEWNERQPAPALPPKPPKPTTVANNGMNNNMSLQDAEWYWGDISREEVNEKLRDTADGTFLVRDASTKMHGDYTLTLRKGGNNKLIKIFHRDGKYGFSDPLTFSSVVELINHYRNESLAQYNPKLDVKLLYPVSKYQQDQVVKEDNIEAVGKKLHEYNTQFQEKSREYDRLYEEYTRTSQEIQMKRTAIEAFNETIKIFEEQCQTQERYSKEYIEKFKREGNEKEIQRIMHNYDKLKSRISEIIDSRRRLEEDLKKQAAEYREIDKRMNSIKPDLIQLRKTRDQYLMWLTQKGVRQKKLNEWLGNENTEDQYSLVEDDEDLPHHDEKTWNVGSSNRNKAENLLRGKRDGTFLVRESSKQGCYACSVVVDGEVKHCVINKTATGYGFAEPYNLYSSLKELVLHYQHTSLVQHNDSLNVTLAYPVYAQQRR
UniProt P48736: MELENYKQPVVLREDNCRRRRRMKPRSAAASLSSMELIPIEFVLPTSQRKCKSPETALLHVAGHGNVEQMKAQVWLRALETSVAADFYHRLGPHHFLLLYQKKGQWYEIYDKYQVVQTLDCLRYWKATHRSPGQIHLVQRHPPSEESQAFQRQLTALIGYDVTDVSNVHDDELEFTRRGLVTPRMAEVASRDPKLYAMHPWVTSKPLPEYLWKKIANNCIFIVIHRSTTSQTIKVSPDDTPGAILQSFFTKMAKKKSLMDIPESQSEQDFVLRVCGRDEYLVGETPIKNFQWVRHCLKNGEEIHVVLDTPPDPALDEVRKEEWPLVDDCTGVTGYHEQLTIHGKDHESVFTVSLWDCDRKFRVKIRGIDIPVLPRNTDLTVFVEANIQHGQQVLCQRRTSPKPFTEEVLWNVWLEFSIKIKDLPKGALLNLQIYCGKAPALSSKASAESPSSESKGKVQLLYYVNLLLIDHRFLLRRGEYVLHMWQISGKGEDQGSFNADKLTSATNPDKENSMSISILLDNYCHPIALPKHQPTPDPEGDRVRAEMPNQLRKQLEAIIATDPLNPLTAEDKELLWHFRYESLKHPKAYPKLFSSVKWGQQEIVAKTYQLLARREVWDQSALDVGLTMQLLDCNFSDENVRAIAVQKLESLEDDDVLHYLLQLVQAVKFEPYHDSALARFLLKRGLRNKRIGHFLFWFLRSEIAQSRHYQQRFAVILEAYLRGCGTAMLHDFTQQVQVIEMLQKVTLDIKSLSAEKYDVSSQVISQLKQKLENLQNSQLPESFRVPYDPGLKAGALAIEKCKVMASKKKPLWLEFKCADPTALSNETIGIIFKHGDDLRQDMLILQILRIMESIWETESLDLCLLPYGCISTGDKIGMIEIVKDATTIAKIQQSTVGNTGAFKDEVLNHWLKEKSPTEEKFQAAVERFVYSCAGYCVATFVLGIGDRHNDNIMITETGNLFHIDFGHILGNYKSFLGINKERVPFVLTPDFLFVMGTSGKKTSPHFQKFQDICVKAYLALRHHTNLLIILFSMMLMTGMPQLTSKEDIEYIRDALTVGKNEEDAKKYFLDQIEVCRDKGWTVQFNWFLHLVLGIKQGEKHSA
UniProt Q8TCD6: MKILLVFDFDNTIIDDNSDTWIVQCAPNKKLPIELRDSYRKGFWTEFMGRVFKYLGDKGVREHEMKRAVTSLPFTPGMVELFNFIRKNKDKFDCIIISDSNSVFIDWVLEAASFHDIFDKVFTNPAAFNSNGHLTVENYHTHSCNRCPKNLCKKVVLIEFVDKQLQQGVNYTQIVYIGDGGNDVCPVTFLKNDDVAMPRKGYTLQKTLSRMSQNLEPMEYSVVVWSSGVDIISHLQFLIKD
UniProt P00558: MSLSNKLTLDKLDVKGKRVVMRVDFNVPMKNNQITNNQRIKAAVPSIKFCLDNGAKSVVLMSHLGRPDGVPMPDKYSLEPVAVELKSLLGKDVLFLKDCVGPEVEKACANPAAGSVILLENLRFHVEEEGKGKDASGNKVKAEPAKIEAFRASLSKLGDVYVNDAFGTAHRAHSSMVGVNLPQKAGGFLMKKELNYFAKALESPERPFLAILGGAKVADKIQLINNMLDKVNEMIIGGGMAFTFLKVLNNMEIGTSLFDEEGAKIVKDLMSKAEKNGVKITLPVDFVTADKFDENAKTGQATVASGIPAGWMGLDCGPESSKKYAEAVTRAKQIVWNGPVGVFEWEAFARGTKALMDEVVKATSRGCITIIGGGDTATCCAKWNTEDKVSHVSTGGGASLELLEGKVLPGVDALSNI
UniProt Q96G03: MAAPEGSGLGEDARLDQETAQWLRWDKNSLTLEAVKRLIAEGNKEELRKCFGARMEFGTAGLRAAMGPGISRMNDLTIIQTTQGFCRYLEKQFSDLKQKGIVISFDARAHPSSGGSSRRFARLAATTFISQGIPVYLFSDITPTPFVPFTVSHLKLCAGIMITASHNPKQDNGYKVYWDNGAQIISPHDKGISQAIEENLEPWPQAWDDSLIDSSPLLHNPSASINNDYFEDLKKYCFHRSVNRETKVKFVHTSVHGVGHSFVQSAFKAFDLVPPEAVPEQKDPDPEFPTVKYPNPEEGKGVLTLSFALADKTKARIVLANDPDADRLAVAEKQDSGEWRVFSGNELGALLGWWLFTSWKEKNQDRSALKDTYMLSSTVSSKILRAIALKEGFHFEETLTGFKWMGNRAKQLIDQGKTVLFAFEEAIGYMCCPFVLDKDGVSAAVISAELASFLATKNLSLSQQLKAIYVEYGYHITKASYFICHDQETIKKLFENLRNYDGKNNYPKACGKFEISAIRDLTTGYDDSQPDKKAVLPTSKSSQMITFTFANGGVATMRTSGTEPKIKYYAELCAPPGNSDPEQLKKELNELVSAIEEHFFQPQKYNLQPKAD
UniProt Q8NEB9, whole entry, looked up: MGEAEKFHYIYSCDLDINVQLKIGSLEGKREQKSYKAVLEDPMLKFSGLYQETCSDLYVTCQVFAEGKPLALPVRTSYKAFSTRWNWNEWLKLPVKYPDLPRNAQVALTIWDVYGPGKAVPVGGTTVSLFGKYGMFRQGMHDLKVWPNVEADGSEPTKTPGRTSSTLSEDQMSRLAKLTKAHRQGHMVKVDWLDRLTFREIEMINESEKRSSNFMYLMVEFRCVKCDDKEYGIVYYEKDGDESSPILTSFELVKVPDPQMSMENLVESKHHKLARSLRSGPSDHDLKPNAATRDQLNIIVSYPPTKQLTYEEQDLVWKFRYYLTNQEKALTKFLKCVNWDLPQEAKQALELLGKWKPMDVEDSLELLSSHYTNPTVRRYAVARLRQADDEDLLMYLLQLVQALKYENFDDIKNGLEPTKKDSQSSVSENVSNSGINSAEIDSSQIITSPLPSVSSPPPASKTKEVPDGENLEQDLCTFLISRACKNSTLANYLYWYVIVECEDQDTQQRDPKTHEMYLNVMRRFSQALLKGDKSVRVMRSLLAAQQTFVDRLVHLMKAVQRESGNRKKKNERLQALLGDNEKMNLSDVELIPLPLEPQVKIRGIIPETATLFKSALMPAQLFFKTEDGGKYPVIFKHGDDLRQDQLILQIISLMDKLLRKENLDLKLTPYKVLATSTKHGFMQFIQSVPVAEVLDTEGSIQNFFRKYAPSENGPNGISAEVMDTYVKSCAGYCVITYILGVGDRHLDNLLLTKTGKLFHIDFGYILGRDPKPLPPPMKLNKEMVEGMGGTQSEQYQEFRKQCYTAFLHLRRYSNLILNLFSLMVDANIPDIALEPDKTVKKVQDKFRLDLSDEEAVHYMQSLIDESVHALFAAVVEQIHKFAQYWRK
UniProt Q7Z412: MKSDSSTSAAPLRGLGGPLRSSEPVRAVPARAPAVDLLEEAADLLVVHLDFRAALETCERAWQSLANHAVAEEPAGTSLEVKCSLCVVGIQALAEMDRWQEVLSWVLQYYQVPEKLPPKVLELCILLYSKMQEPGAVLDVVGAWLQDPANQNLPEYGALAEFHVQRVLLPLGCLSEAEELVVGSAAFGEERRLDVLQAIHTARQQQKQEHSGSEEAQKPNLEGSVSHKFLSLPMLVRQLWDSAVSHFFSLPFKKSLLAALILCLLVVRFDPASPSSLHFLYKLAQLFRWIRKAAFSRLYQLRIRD

Tests used:
Experiment in all cases: log2 fold change, soluble protein after heating vs DMSO (PISA); higher = thermal stabilisation; K562 cells, 10 uM, 30 min; active = over 0.2 and 3.5 SD of the protein, either way, in both replicates (recomputed)
[1] = compound: C#Cc1cccc(Nc2ncnc3cc(OCCOC)c(OCCOC)cc23)c1 [erlotinib]
Procedure, shortened: (§1)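 K562 cells at 2×10^6 cells/mL were treated for 30 min with 10 μM compound, and aliquots were heated for 3 min over 48°C-58°C before pooling. Extraction used PBS with 0.5% NP-40 at 4°C, and soluble protein was the supernatant after 21,000xg for 90 min, measured by TMTpro 16plex LC-MS/MS with channel sums equalised. Thermal stability values, relative to control samples and from duplicates, are log2 fold changes.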

[2] = compound: C/C(=N\NC(=O)C1=CC(=CC=C1)S(=O)(=O)N2CCOCC2)/C3=C(C=CC(=C3)Cl)O
Procedure, shortened: as §1

[3] = compound: C1=CC(=C(C=C1Cl)C2=NC3=NC=CN=C3C(=N2)NC4=CC=NC=C4)F
Procedure, shortened: as §1

[4] = compound: C1=CC(=CC=C1C2=NC3=C(N2)C=C(C=C3)C(=O)N)OC4=CC=C(C=C4)Cl
Procedure, shortened: as §1

[5] = compound: C1=CC2=C(C=CC(=C2)/C=C\3/C(=O)NC(=NCC4=CC=CS4)S3)N=C1
Procedure, shortened: as §1

[6] = compound: C1=CC2=NC=CN=C2C=C1/C=C/3\C(=O)NC(=O)S3
Procedure, shortened: as §1

[7] = compound: C1=CC=C(C=C1)C2=NC(=C(N2)C3=CC=NC=C3)C4=CC(=C(C=C4)Cl)O
Procedure, shortened: as §1

[8] = compound: C1=CC=C2C(=C1)C3=NNC4=CC=CC(=C43)C2=O
Procedure, shortened: as §1

[9] = compound: C1CCN(C1)C(=O)NC2=CC=CC(=C2)NC3=NC=C(C(=N3)NCCC4=CN=CN4)Br
Procedure, shortened: as §1

[10] = compound: C1CN(CCC1(CC2=CC=C(C=C2)Cl)N)C3=NC=NC4=C3C=CN4
Procedure, shortened: as §1

Measured: log2 fold change

PIN4 isoform 2 (UniProt Q9Y237)
inactive: [1] -0.02 | [2] 0.078 | [3] 0.024 | [4] 0.005 | [5] -0.034 | [6] 0.056 | [7] -0.004 | [8] 0.054 | [9] -0.003 | [10] -0.016

PHF10 (UniProt Q8WUB8)
inactive: [1] -0.124 | [2] -0.086 | [3] -0.051 | [4] 0.155 | [5] 0.057 | [6] 0.16 | [7] -0.093 | [8] -0.254 | [9] 0.208 | [10] -0.069

PJA2 (UniProt O43164)
inactive: [1] -0.006 | [2] -0.047 | [3] -0.049 | [4] 0.018 | [5] 0.003 | [6] 0.071 | [7] -0.061 | [8] -0.112 | [9] -0.024 | [10] -0.009

PIR (UniProt O00625)
inactive: [1] -0.027 | [2] -0.058 | [3] 0.025 | [5] 0.111 | [6] 0.031 | [7] -0.027 | [9] -0.053 | [10] -0.002
active: [4] 0.464 | [8] 0.225

PIK3R4 (UniProt Q99570)
inactive: [1] -0.004 | [2] -0.023 | [3] -0.014 | [4] -0.007 | [5] -0.003 | [6] 0.097 | [7] -0.033 | [8] 0.043 | [9] -0.009 | [10] 0.01

PLCG2 (UniProt P16885)
inactive: [1] 0.059 | [2] -0.357 | [4] -0.075 | [5] 0.288 | [6] 0.038 | [8] -0.085

PIGW (UniProt Q7Z7B1)
inactive: [1] 0.147 | [2] 0.091 | [3] 0.085 | [4] -0.044 | [5] 0.09 | [6] -0.085 | [8] -0.012 | [9] 0.09 | [10] 0.129

PHF5A (UniProt Q7RTV0)
inactive: [1] 0.008 | [2] -0.005 | [3] 0.03 | [4] -0.034 | [5] -0.049 | [6] 0.017 | [7] -0.03 | [8] -0.05 | [9] -0.02 | [10] 0.022

PFDN6 (UniProt O15212)
inactive: [1] 0.006 | [2] -0.022 | [3] 0.068 | [4] 0.001 | [5] 0.049 | [6] 0.026 | [7] -0.062 | [8] 0.008 | [9] -0.049 | [10] -0.029

Quoted from the listing (5 entries):
PIK3R4 (UniProt Q99570)
inactive: [1] -0.004 | [2] -0.023 | [3] -0.014 | [4] -0.007 | [5] -0.003 | [6] 0.097 | [7] -0.033 | [8] 0.043 | [9] -0.009 | [10] 0.01

PLCG2 (UniProt P16885)
inactive: [1] 0.059 | [2] -0.357 | [4] -0.075 | [5] 0.288 | [6] 0.038 | [8] -0.085

PIGW (UniProt Q7Z7B1)
inactive: [1] 0.147 | [2] 0.091 | [3] 0.085 | [4] -0.044 | [5] 0.09 | [6] -0.085 | [8] -0.012 | [9] 0.09 | [10] 0.129

PHF5A (UniProt Q7RTV0)
inactive: [1] 0.008 | [2] -0.005 | [3] 0.03 | [4] -0.034 | [5] -0.049 | [6] 0.017 | [7] -0.03 | [8] -0.05 | [9] -0.02 | [10] 0.022

PFDN6 (UniProt O15212)
inactive: [1] 0.006 | [2] -0.022 | [3] 0.068 | [4] 0.001 | [5] 0.049 | [6] 0.026 | [7] -0.062 | [8] 0.008 | [9] -0.049 | [10] -0.029

The list continues:

PFDN2 (UniProt Q9UHV9)
inactive: [1] -0.028 | [2] 0.06 | [3] 0.015 | [4] -0.024 | [5] 0.01 | [6] 0.027 | [7] -0.042 | [8] -0.023 | [9] -0.02 | [10] 0.021

PGS1 (UniProt Q32NB8)
inactive: [1] 0.011 | [2] 0.051 | [3] 0.137 | [4] 0.074 | [5] 0.029 | [6] -0.009 | [8] 0.013 | [9] -0.201 | [10] 0.085

PGLS (UniProt O95336)
inactive: [1] -0.025 | [2] 0.034 | [3] 0.205 | [4] 0.046 | [5] 0.069 | [6] 0.107 | [7] 0.121 | [8] 0.032 | [9] 0.019 | [10] -0.027

PLCL1 (UniProt Q15111)
inactive: [1] 0.136 | [2] -0.122 | [3] 0.117 | [4] 0.095 | [5] -0.042 | [6] 0.007 | [7] 0.098 | [8] 0.051 | [9] 0 | [10] -0.376

PFDN1 (UniProt O60925)
inactive: [1] -0.018 | [2] 0.012 | [3] 0.263 | [4] 0.07 | [5] 0.056 | [6] 0.063 | [7] 0.137 | [8] 0.047 | [9] -0.091 | [10] -0.057

PGM3 isoform 4 (UniProt O95394)
inactive: [1] 0.001 | [2] 0.094 | [3] 0.045 | [4] 0.103 | [5] 0.092 | [6] 0.001 | [7] 0.042 | [8] 0.064 | [9] -0.005 | [10] -0.053

PIK3R1 (UniProt P27986)
inactive: [1] 0.01 | [2] 0.033 | [3] 0.025 | [4] 0.048 | [5] 0.036 | [6] 0.14 | [7] -0.022 | [8] -0.027 | [9] -0.024 | [10] 0.05

PKNOX1 (UniProt P55347)
inactive: [1] -0.145 | [2] 0.06 | [4] 0.177 | [5] 0.261 | [8] -0.022

PKM (UniProt P14618)
inactive: [1] 0.008 | [2] -0.005 | [3] 0.052 | [4] 0.003 | [5] 0.002 | [6] -0.003 | [7] -0.016 | [8] -0.011 | [9] -0.006 | [10] 0.029

PEX6 (UniProt Q13608)
inactive: [1] 0.026 | [2] 0.034 | [3] -0.013 | [4] 0.04 | [5] 0.035 | [6] 0.024 | [7] -0.036 | [8] 0 | [9] -0.02 | [10] 0.093

PIK3CG (UniProt P48736)
inactive: [1] -0.133 | [2] -0.512 | [3] -0.074 | [4] 0.029 | [5] 0.361 | [8] -0.347

PHOSPHO2 (UniProt Q8TCD6)
inactive: [1] 0.013 | [2] 0.044 | [4] -0.034 | [5] 0.036 | [6] 0.039 | [7] 0.154 | [8] -0.032 | [9] 0.077 | [10] -0.309

PGP (UniProt A6NDG6)
inactive: [1] -0.005 | [2] 0.036 | [3] 0.02 | [4] -0.029 | [5] 0.016 | [6] 0.039 | [7] -0.01 | [8] 0.005 | [9] 0.001 | [10] 0.016

PGK1 (UniProt P00558)
inactive: [1] -0.028 | [2] 0 | [3] 0.065 | [4] 0.007 | [5] 0.01 | [6] -0.018 | [7] 0.009 | [8] 0.02 | [9] 0.018 | [10] 0.029

PHKB isoform 3 (UniProt Q93100)
inactive: [1] -0.06 | [2] -0.027 | [3] 0.058 | [4] -0.008 | [5] 0.049 | [6] -0.023 | [7] -0.011 | [8] 0.048 | [9] 0.022 | [10] 0.039

PEX3 (UniProt P56589)
inactive: [1] -0.003 | [2] 0.037 | [3] 0.02 | [4] -0.004 | [5] -0.013 | [7] 0.026 | [8] 0.079 | [9] 0.016 | [10] -0.152

PICALM (UniProt H0YEY8)
inactive: [1] 0.046 | [2] -0.006 | [3] 0.05 | [4] -0.048 | [5] 0.086 | [6] -0.013 | [7] -0.161 | [8] -0.071 | [9] -0.038 | [10] 0.014

PGM2 (UniProt Q96G03)
inactive: [1] 0.001 | [2] 0.001 | [3] 0.037 | [4] 0.015 | [5] -0.018 | [6] 0.003 | [7] -0.008 | [8] -0.024 | [9] 0.015 | [10] 0.069

PIK3C3 (UniProt Q8NEB9)
inactive: [1] -0.005 | [2] -0.004 | [3] -0.157 | [4] -0.005 | [5] 0.011 | [6] 0.087 | [7] -0.007 | [8] 0.048 | [9] -0.024 | [10] 0.06

PEX26 (UniProt Q7Z412)
inactive: [1] -0.059 | [2] -0.004 | [3] -0.071 | [4] -0.014 | [5] 0.239 | [7] -0.101 | [8] -0.16 | [9] -0.145 | [10] 0.188

PFKM isoform 3 (UniProt P08237)
inactive: [1] -0.03 | [2] 0.011 | [3] 0.033 | [4] 0.017 | [5] 0.042 | [6] 0.007 | [7] 0.012 | [8] -0.019 | [9] 0.012 | [10] 0.073

PIP4K2B (UniProt P78356)
inactive: [1] 0.16 | [2] -0.022 | [3] 0.082 | [4] -0.083 | [5] 0.017 | [6] 0.244 | [7] 0.104 | [8] 0.096 | [9] 0.13 | [10] 0.037
